In paper PMC1064074:
No constants are given. Whether binding was seen depends on the method and setting. Binding seen in cells or lysates may run through a third protein. Binding can be weak; no strength is given.

Chains of the proteins cited; added tags and fusions are not shown. Lines headed by an entry give the natural chain unless they say otherwise; changes in a name come on top.
UniProt Q8C6B2: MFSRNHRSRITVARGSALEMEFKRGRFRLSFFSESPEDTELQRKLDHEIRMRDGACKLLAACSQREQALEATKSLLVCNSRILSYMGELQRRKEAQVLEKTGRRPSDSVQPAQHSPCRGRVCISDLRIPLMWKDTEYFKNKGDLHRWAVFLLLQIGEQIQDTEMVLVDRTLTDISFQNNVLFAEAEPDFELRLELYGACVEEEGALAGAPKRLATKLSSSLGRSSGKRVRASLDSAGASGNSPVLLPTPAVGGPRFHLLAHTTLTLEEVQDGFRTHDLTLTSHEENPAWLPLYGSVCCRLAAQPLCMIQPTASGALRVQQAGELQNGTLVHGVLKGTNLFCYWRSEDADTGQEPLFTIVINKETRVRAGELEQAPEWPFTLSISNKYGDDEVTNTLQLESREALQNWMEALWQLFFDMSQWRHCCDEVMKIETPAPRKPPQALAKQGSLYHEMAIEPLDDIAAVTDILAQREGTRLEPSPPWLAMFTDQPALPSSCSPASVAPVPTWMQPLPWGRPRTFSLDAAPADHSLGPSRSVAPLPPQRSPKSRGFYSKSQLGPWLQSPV
UniProt P61586: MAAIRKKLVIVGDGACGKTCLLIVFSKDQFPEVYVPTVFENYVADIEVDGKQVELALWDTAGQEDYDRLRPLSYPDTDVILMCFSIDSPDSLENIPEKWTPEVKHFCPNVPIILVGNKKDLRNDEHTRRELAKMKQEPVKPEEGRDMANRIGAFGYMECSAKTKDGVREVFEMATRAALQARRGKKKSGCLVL

Target: GST-RBD (Rho-binding domain of Rhotekin) fusion protein (UniProt Q8C6B2)
Experiment: pull-down; glutathione beads coupled with the GST fusion protein incubated 45 min at 4°C with RIPA extracts of MDA-MB-435 cells (nondeprived or serum deprived for 6 or 24 hours); washed three times with Tris buffer pH 7.2, 1% Triton X-100, 150 mmol/l NaCl, 10 mmol/l MgCl2; bound GTPase detected by immunoblot; only the target purified

In the case of RhoA (from UniProt P61586 1-193), the binding is reported as “binds”.
